{"source": "PubChem BioAssay AID1224828 – NIAID, 2016", "screen": "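Knock-downs that increase or decrease LPS-induced p65 nuclear translocation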 (primary screen)", "cell system": "mouse RAW264.7 G9 macrophage reporter cells (GFP-p65, Tnf promoter-mCherry)", "reagents": "siRNA pool against mouse genes, 100 nM", "duration": "2 days siRNA transfection, then 40 min LPS before fixation", "treatment": "LPS (Salmonella minnesota R595) at 10 ng/ml", "measured": "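Imaged p65 nuclear translocation ratio, normalised to the plate median, converted to robust z-scores and averaged across two replicates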", "reading the numbers": "p65 translocation robust z-score: higher = more nuclear NF-kappaB p65 after LPS than the plate median; nuclear/cytoplasmic p65 ratio: higher = more nuclear NF-kappaB p65", "hit rule": "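Called active when z exceeds 3.3 or falls under -1.56 (median of Tlr4 controls), giving activity score of at least 50; no calls for control wells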", "meaning of the calls": "active = hit (p65 shift raised or lowered); inactive = no clear change", "note": "The deposit covers about 17,000 reagents; below is an unselected part. Of all reagents, 762 (4.5%) are marked active. 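Active calls include both raised and lowered p65 entry, mostly lowered; wells with fewer than 50 cells lack a z-score.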 Raw values vary from plate to plate and are shown uncorrected. A number with no mark means an inactive call. Reagent sequences are not shown."}
{"Gene": "Ptafr (GeneID 19204)", "p65 translocation robust z-score": -0.08, "nuclear/cytoplasmic p65 ratio, rep 1": 1.43, "nuclear/cytoplasmic p65 ratio, rep 2": 1.65, "low cell count flag": "enough cells to score"}
{"Gene": "COL6A3", "p65 translocation robust z-score": 2.41, "nuclear/cytoplasmic p65 ratio, rep 1": 1.89, "nuclear/cytoplasmic p65 ratio, rep 2": 2.23, "low cell count flag": "enough cells to score"}
{"Gene": "Acsf3 (GeneID 257633)", "p65 translocation robust z-score": 1.5, "nuclear/cytoplasmic p65 ratio, rep 1": 1.82, "nuclear/cytoplasmic p65 ratio, rep 2": 2.07, "low cell count flag": "enough cells to score"}
{"Gene": "Mgmt (GeneID 17314)", "p65 translocation robust z-score": -0.64, "nuclear/cytoplasmic p65 ratio, rep 1": 1.54, "nuclear/cytoplasmic p65 ratio, rep 2": 1.52, "low cell count flag": "enough cells to score"}
{"Gene": "Sema6d (GeneID 214968)", "p65 translocation robust z-score": -0.5, "nuclear/cytoplasmic p65 ratio, rep 1": 1.57, "nuclear/cytoplasmic p65 ratio, rep 2": 1.2, "low cell count flag": "enough cells to score"}
{"Gene": "Hira (GeneID 15260)", "p65 translocation robust z-score": -0.53, "nuclear/cytoplasmic p65 ratio, rep 1": 1.37, "nuclear/cytoplasmic p65 ratio, rep 2": 1.48, "low cell count flag": "enough cells to score"}
{"Gene": "Gjb6 (GeneID 14623)", "p65 translocation robust z-score": -1.11, "nuclear/cytoplasmic p65 ratio, rep 1": 1.23, "nuclear/cytoplasmic p65 ratio, rep 2": 1.28, "low cell count flag": "enough cells to score"}
{"Gene": "Alox12e (GeneID 11685)", "p65 translocation robust z-score": 1.92, "nuclear/cytoplasmic p65 ratio, rep 1": 1.87, "nuclear/cytoplasmic p65 ratio, rep 2": 2.01, "low cell count flag": "enough cells to score"}
{"Gene": "Or12d12 (GeneID 258831)", "p65 translocation robust z-score": -0.57, "nuclear/cytoplasmic p65 ratio, rep 1": 1.61, "nuclear/cytoplasmic p65 ratio, rep 2": 1.46, "low cell count flag": "enough cells to score"}
{"Gene": "Cd48 (GeneID 12506)", "p65 translocation robust z-score": 1.43, "nuclear/cytoplasmic p65 ratio, rep 1": 1.73, "nuclear/cytoplasmic p65 ratio, rep 2": 1.49, "low cell count flag": "enough cells to score"}
{"Gene": "Guf1 (GeneID 231279)", "p65 translocation robust z-score": -1.13, "nuclear/cytoplasmic p65 ratio, rep 1": 1.19, "nuclear/cytoplasmic p65 ratio, rep 2": 1.42, "low cell count flag": "enough cells to score"}
{"Gene": "Chrna4 (GeneID 11438)", "p65 translocation robust z-score": -0.54, "nuclear/cytoplasmic p65 ratio, rep 1": 1.52, "nuclear/cytoplasmic p65 ratio, rep 2": 1.31, "low cell count flag": "enough cells to score"}
{"Gene": "P3h2 (GeneID 210530)", "p65 translocation robust z-score": -0.25, "nuclear/cytoplasmic p65 ratio, rep 1": 1.58, "nuclear/cytoplasmic p65 ratio, rep 2": 1.59, "low cell count flag": "enough cells to score"}
{"Gene": "Slc30a8 (GeneID 239436)", "nuclear/cytoplasmic p65 ratio, rep 1": 1.07, "nuclear/cytoplasmic p65 ratio, rep 2": 1.26, "low cell count flag": "fewer than 50 cells per well; well left out of scoring"}
{"Gene": "Aicda (GeneID 11628)", "p65 translocation robust z-score": 1.04, "nuclear/cytoplasmic p65 ratio, rep 1": 1.65, "nuclear/cytoplasmic p65 ratio, rep 2": 1.89, "low cell count flag": "enough cells to score"}

Not a retest: 2 of the entries above.
{"Gene": "Sema6d (GeneID 214968)", "p65 translocation robust z-score": -0.5, "nuclear/cytoplasmic p65 ratio, rep 1": 1.57, "nuclear/cytoplasmic p65 ratio, rep 2": 1.2, "low cell count flag": "enough cells to score"}
{"Gene": "Hira (GeneID 15260)", "p65 translocation robust z-score": -0.53, "nuclear/cytoplasmic p65 ratio, rep 1": 1.37, "nuclear/cytoplasmic p65 ratio, rep 2": 1.48, "low cell count flag": "enough cells to score"}

More reagents follow:
{"Gene": "Mtch2 (GeneID 56428)", "p65 translocation robust z-score": -0.99, "nuclear/cytoplasmic p65 ratio, rep 1": 1.59, "nuclear/cytoplasmic p65 ratio, rep 2": 1.47, "low cell count flag": "enough cells to score"}
{"Gene": "Flt3 (GeneID 14255)", "p65 translocation robust z-score": 0.74, "nuclear/cytoplasmic p65 ratio, rep 1": 1.9, "nuclear/cytoplasmic p65 ratio, rep 2": 1.4, "low cell count flag": "enough cells to score"}
{"Gene": "Selenoo (GeneID 223776)", "p65 translocation robust z-score": -0.05, "nuclear/cytoplasmic p65 ratio, rep 1": 1.52, "nuclear/cytoplasmic p65 ratio, rep 2": 1.48, "low cell count flag": "enough cells to score"}
{"Gene": "Sptbn4 (GeneID 80297)", "p65 translocation robust z-score": 0.9, "nuclear/cytoplasmic p65 ratio, rep 1": 1.6, "nuclear/cytoplasmic p65 ratio, rep 2": 1.28, "low cell count flag": "enough cells to score"}
{"Gene": "Prr18 (GeneID 320111)", "p65 translocation robust z-score": -0.63, "nuclear/cytoplasmic p65 ratio, rep 1": 1.32, "nuclear/cytoplasmic p65 ratio, rep 2": 1.46, "low cell count flag": "enough cells to score"}
{"Gene": "Ogfod1 (GeneID 270086)", "nuclear/cytoplasmic p65 ratio, rep 1": 1.4, "nuclear/cytoplasmic p65 ratio, rep 2": 1.68, "low cell count flag": "fewer than 50 cells per well; well left out of scoring"}
{"Gene": "Cdkn1b (GeneID 12576)", "p65 translocation robust z-score": 0.23, "nuclear/cytoplasmic p65 ratio, rep 1": 1.75, "nuclear/cytoplasmic p65 ratio, rep 2": 1.39, "low cell count flag": "enough cells to score"}
{"Gene": "Cers2 (GeneID 76893)", "p65 translocation robust z-score": 1.63, "nuclear/cytoplasmic p65 ratio, rep 1": 1.74, "nuclear/cytoplasmic p65 ratio, rep 2": 1.68, "low cell count flag": "enough cells to score"}
{"Gene": "Prkaa1 (GeneID 105787)", "p65 translocation robust z-score": -1.17, "nuclear/cytoplasmic p65 ratio, rep 1": 1.53, "nuclear/cytoplasmic p65 ratio, rep 2": 1.22, "low cell count flag": "enough cells to score"}
{"Gene": "Aup1 (GeneID 11993)", "p65 translocation robust z-score": 1.24, "nuclear/cytoplasmic p65 ratio, rep 1": 1.75, "nuclear/cytoplasmic p65 ratio, rep 2": 1.72, "low cell count flag": "enough cells to score"}
{"Gene": "Hsd17b6 (GeneID 27400)", "nuclear/cytoplasmic p65 ratio, rep 1": 1.47, "nuclear/cytoplasmic p65 ratio, rep 2": 1.36, "low cell count flag": "fewer than 50 cells per well; well left out of scoring"}
{"Gene": "Prkcb (GeneID 18751)", "p65 translocation robust z-score": 0.15, "nuclear/cytoplasmic p65 ratio, rep 1": 1.61, "nuclear/cytoplasmic p65 ratio, rep 2": 1.39, "low cell count flag": "enough cells to score"}
